Reference: publication PMC13156305
No constants are given. Whether binding was seen depends on the method and setting. In cells and extracts the contact can be indirect. Some results given as binding are weak or reduced against the parent protein; the word gives no strength. For part of these data: Where a sequence is shown, tags or fusion partners need not be part of it.

Chains of the proteins cited; added tags and fusions are not shown.
UniProt Q15386: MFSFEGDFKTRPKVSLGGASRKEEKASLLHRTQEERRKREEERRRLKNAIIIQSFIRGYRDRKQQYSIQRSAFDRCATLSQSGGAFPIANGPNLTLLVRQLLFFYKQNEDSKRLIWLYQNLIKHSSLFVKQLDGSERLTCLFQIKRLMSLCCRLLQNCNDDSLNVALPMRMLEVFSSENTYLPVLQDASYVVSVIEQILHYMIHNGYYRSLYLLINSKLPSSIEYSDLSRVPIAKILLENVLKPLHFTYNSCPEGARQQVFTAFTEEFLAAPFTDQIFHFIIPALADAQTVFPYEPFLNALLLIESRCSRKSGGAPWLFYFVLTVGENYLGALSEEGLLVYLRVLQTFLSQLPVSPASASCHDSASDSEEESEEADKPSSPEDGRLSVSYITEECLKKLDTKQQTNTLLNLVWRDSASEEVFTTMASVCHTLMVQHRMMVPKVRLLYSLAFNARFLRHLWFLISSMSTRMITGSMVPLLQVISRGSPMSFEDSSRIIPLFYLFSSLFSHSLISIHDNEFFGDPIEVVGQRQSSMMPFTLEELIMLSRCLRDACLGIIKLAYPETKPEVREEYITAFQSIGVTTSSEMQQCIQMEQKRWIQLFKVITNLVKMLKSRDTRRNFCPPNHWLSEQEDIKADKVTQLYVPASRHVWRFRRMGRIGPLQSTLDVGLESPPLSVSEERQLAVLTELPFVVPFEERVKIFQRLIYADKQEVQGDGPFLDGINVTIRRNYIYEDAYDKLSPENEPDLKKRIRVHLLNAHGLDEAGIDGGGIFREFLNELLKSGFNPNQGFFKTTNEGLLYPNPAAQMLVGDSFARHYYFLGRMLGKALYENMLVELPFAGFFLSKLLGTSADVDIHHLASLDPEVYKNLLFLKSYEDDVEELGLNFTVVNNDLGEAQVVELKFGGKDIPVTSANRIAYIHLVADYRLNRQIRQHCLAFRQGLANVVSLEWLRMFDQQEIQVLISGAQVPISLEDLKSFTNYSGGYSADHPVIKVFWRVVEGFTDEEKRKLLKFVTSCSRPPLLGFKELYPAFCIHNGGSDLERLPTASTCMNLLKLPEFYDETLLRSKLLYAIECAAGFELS
UniProt Q9Y4R8: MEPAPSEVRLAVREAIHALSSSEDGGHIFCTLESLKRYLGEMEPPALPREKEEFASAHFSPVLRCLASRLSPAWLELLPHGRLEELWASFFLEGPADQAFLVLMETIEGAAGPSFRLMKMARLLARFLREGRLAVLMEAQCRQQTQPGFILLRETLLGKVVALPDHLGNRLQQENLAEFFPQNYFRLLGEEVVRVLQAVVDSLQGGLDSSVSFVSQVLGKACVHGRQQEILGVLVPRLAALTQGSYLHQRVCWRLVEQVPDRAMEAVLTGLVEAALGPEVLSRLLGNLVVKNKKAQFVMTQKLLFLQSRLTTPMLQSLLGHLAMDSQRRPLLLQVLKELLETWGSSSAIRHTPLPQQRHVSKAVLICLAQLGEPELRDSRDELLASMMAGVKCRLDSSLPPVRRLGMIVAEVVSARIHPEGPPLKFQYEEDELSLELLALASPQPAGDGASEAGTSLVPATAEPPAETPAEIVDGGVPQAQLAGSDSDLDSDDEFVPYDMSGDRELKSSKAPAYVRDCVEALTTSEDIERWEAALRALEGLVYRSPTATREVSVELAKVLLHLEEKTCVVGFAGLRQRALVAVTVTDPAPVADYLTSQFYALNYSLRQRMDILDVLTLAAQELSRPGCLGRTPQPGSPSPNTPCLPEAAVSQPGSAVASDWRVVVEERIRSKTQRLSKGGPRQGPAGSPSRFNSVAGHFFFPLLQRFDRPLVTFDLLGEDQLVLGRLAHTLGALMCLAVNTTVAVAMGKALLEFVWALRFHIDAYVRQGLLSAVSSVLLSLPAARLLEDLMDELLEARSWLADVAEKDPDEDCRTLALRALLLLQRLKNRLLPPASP

Experiments:
[1] = target: mLST8-HA wild type, expressed in HT29 cells (human) (UniProt Q9BVC4); experiment: co-IP; HT29 cells transduced with mLST8-HA proteins, with or without SLAP overexpression; endogenous RICTOR or UBE3C
[2] = target: T1, Src-Like Adaptor Protein (SLAP)-Flag, overexpressed in CRC cells (UniProt Q60898); experiment: co-IP; lysates of HT29 and SW620 cells overexpressing SLAP-Flag (or its mutants), endogenous partners detected by WB; also after siRNA against LST8 or depletion of TELO2
T1 sequence: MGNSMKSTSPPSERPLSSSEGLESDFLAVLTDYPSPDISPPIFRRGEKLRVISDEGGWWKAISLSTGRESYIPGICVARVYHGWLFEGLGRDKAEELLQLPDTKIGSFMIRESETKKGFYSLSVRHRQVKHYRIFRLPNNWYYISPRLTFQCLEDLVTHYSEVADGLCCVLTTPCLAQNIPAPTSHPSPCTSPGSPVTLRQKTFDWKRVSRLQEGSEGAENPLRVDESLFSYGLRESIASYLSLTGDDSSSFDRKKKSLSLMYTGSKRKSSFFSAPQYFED

[3] = target: T2, Src-Like Adaptor Protein (SLAP), expressed in HEK293T cells (UniProt Q60898); experiment: co-IP; SLAP and each single component of the complex expressed in HEK293T cells; the method is not named for this experiment
T2 sequence: T1 sequence

binding [1]	binding [2]	binding [3]	Substance
binds	binds	–	E3 ubiquitin ligase UBE3C, endogenous in CRC cells (from UniProt Q15386 1-1083) (enzyme)
–	–	binds	TELO2, expressed in HEK293T cells (from UniProt Q9Y4R8 1-837)
